Measured values reported in patent US9284325B2, “Spectinamides as anti-tuberculosis agents” (UNIVERSITY OF TENNESSEE RESEARCH FOUNDATION, priority 2009, dated 2016).
Counter-ions that a name gives are not always drawn. For some assays here: The name of at least one read-out is uncertain. Some results were stated once for a whole list of compounds, not compound by compound. Some ranges recur; such a range may be that of the whole group of compounds.

Key:
[1] = tested on: Strep. pneumoniae DAW27 or strain R6; assay: MIC determination by microbroth dilution; type: cell-based, Streptococcus pneumoniae
B. anthracis Sterne 34F2 = type: cell-based, Bacillus anthracis
E. coli ribosomes = type: biochemical; conditions: compared with spectinomycin and streptomycin
[2] = tested on: protein synthesis in whole cell M. bovis BCG; type: cell-based
E. faecalis ATCC 33186 = assay: MIC determination by microbroth dilution; type: cell-based, Enterococcus faecalis

Row | Structure (SMILES) | fold improvement in activity over spectinomycin against Strep. pneumoniae [1] | further results
1 | CN[C@@H]1[C@H](O)[C@H](NC)C2O[C@]3(O)C(OC2[C@H]1O)O[C@H](C)C[C@H]3NC(=O)Cc1ccc(OC)cc1 (stereo partly drawn) [Compound 1446, 3′-Dihydro-3′-deoxy-4(R)-(4-methoxy-phenyl)acetylamino spectinomycin Dihydrochloride] | 8-62.5 fold | 
2 | CN[C@@H]1[C@H](O)[C@H](NC)C2O[C@]3(O)C(OC2[C@H]1O)O[C@H](C)C[C@H]3NC(=O)Cc1csc(Nc2ccccc2)n1 (stereo partly drawn) [Compound 1520, 3′-Dihydro-3′-deoxy-4(R)-(2-(phenylamino)thiazol-4-yl)acetylamino spectinomycin trihydrobromide] | 8-62.5 fold | 
3 | CN[C@@H]1[C@H](O)[C@H](NC)C2O[C@]3(O)C(OC2[C@H]1O)O[C@H](C)C[C@H]3NC(=O)Cc1cn(Cc2ccccc2)nn1 (stereo partly drawn) [Compound 1537, 3′-Dihydro-3′-deoxy-4(R)-2-(1-benzyl-1H-1,2,3-triazol-4-yl)acetyl-amino spectinomycin tetrabromide] | 8-62.5 fold | 
4 | CN[C@@H]1[C@H](O)[C@H](NC)C2O[C@]3(O)C(OC2[C@H]1O)O[C@H](C)C[C@H]3NC(=O)Cc1csc(N)n1 (stereo partly drawn) [Compound 1444, 3′-Dihydro-3′-deoxy-4(R)-(2-aminothiazol-4-yl)acetylamino spectinomycin trihydrobromide] |  | fold improvement over spectinomycin (MIC) against B. anthracis (B. anthracis Sterne 34F2): 4-16 fold; IC50 in luciferase synthesis (E. coli ribosomes): low IC50s
5 | CN[C@@H]1[C@H](O)[C@H](NC)C2O[C@]3(O)C(OC2[C@H]1O)O[C@H](C)C[C@H]3NC(=O)Cc1ccc(Br)cn1 (stereo partly drawn) [Compound 1516, 3′-Dihydro-3′-deoxy-4(R)-(5-bromopyridin-2-yl)acetylamino spectinomycin trihydrobromide] | 8-62.5 fold | 
6 | CN[C@@H]1[C@H](O)[C@H](NC)C2O[C@]3(O)C(OC2[C@H]1O)O[C@H](C)C[C@H]3NC(=O)Cc1ccc(-c2ccc(F)cc2)cn1 (stereo partly drawn) [Compound 1542, 3′-Dihydro-3′-deoxy-4(R)-(5-(4-fluorophenyl)pyridin-2-yl)acetylamino spectinomycin tribromide] | 8-62.5 fold | 
7 | CN[C@@H]1[C@H](O)[C@H](NC)C2O[C@]3(O)C(OC2[C@H]1O)O[C@H](C)C[C@H]3NC(=O)[C@@H](N)Cc1ccccc1 (stereo partly drawn) [Compound 1515, 3′-Dihydro-3′-deoxy-4(R)-[2(S)-amino,3-phenyl]propanoylamino spectinomycin Trihydrochloride] | 8-62.5 fold | 
8 | CN[C@@H]1[C@H](O)[C@H](NC)C2O[C@]3(O)C(OC2[C@H]1O)O[C@H](C)C[C@H]3NC(=O)Cc1cccnc1 (stereo partly drawn) [Compound 1368, 3′-Dihydro-3′-deoxy-4(R)-(pyridin-3-yl)acetylamino spectinomycin Dihydrochloride] |  | fold improvement over spectinomycin (MIC) against B. anthracis (B. anthracis Sterne 34F2): 4-16 fold
9 | CN[C@@H]1[C@H](O)[C@H](NC)C2O[C@]3(O)C(OC2[C@H]1O)O[C@H](C)C[C@H]3NC(=O)CNC(C)(C)C (stereo partly drawn) [Compound 1351, 3′-Dihydro-3′-deoxy-4(R)-(tert-butylamino)-acetylamino spectinomycin Dihydrochloride] |  | IC50 in luciferase synthesis (E. coli ribosomes): comparably low IC50s
10 | CN[C@@H]1[C@H](O)[C@H](NC)C2O[C@]3(O)C(OC2[C@H]1O)O[C@H](C)C[C@H]3NC(=O)Cc1ccccn1 (stereo partly drawn) [Compound 1329, 3′-Dihydro-3′-deoxy-4(R)-(pyridin-2yl)acetylamino spectinomycin Dihydrochloride] | 8-62.5 fold | inhibition of protein synthesis [2]: ≥ 50%; IC50 in luciferase synthesis (E. coli ribosomes): low IC50s
11 | CN[C@@H]1[C@H](O)[C@H](NC)C2O[C@]3(O)C(OC2[C@H]1O)O[C@H](C)C[C@H]3NC(=O)Cc1ccc(-c2ccccc2)cn1 (stereo partly drawn) [Compound 1519, 3′-Dihydro-3′-deoxy-4(R)-(5-phenylpyridin-2-yl)acetylamino spectinomycin trihydrobromide] | 8-62.5 fold | 
12 | CN[C@@H]1[C@H](O)[C@H](NC)C2O[C@]3(O)C(OC2[C@H]1O)O[C@H](C)C[C@H]3NC(=O)Cc1ccc(-c2ccc(Cl)cc2)cn1 (stereo partly drawn) [Compound 1535, 3′-Dihydro-3′-deoxy-4(R)-(5-(4-chlorophenyl)pyridin-2-yl)acetylamino spectinomycin trihydrobromide] | 8-62.5 fold | fold improvement over spectinomycin (MIC) against E. facecalis (E. faecalis ATCC 33186): 4-16 fold
13 | CN[C@@H]1[C@H](O)[C@H](NC)C2O[C@]3(O)C(OC2[C@H]1O)O[C@H](C)C[C@H]3NC(=O)Cc1csc(Nc2ccc(OC(F)(F)F)cc2)n1 (stereo partly drawn) [Compound 1540, 3′-Dihydro-3′-deoxy-4(R)-(2-((4-(trifluoromethoxy)phenyl)amino)-thiazol-4-yl)acetylamino spectinomycin tribromide] | 8-62.5 fold | 
14 | CN[C@@H]1[C@H](O)[C@H](NC)C2O[C@]3(O)C(OC2[C@H]1O)O[C@H](C)C[C@H]3NC(=O)Cc1cccc(F)c1F (stereo partly drawn) [Compound 1447, 3′-Dihydro-3′-deoxy-4(R)-(2,3-difluoro-phenyl)acetylamino spectinomycin Dihydrochloride] | 8-62.5 fold | IC50 in luciferase synthesis (E. coli ribosomes): comparably low IC50s
15 | CN[C@@H]1[C@H](O)[C@H](NC)C2O[C@]3(O)C(OC2[C@H]1O)O[C@H](C)C[C@H]3NC(=O)Cc1cc(Cl)ccn1 (stereo partly drawn) [Compound 1544, 3′-Dihydro-3′-deoxy-4(R)-(4-chloropyridin-2-yl)acetylamino spec-tinomycin tribromide] | 8-62.5 fold | 
16 | CN[C@@H]1[C@H](O)[C@H](NC)C2O[C@]3(O)C(OC2[C@H]1O)O[C@H](C)C[C@H]3NC(=O)Cc1csc(Nc2cccc(F)c2)n1 (stereo partly drawn) [Compound 1539, 3′-Dihydro-3′-deoxy-4(R)-(2-((3-fluorophenyl)amino)thiazol-4-yl)acetylamino spectinomycin tribromide] | 8-62.5 fold | 
17 | CN[C@@H]1[C@H](O)[C@H](NC)C2O[C@]3(O)C(OC2[C@H]1O)O[C@H](C)C[C@H]3NCc1ccco1 (stereo partly drawn) [Compound 1422, 3′-Dihydro-3′-deoxy-4(R)-furan-2yl-methylamino spectinomycin Trihydrochloride] |  | fold improvement over spectinomycin (MIC) against E. facecalis (E. faecalis ATCC 33186): 4-16 fold
18 | CN[C@@H]1[C@H](O)[C@H](NC)C2O[C@]3(O)C(OC2[C@H]1O)O[C@H](C)C[C@H]3NC(=O)Cc1ccc(F)cn1 (stereo partly drawn) [Compound 1445, 3′-Dihydro-3′-deoxy-4(R)-(5-fluoropyridin-2-yl)acetylamino spectinomycin trihydrobromide] |  | inhibition of protein synthesis [2]: ≥ 50%; IC50 in luciferase synthesis (E. coli ribosomes): low IC50s
19 | CN[C@@H]1[C@H](O)[C@H](NC)C2O[C@]3(O)C(OC2[C@H]1O)O[C@H](C)C[C@H]3NC(=O)Cc1csc(Nc2ccc(C(F)(F)F)cc2)n1 (stereo partly drawn) [Compound 1541, 3′-Dihydro-3′-deoxy-4(R)-(2-((4-(trifluoromethyl)phenyl)amino)-thiazol-4-yl)acetylamino spectinomycin tribromide] | 8-62.5 fold | 
20 | CN[C@@H]1[C@H](O)[C@H](NC)C2O[C@]3(O)C(OC2[C@H]1O)O[C@H](C)C[C@H]3NC(=O)Cc1cscn1 (stereo partly drawn) [Compound 1443, 3′-Dihydro-3′-deoxy-4(R)-(thiazol-4-yl)acetylamino spectinomycin trihydrobromide] |  | fold improvement over spectinomycin (MIC) against B. anthracis (B. anthracis Sterne 34F2): 4-16 fold; IC50 in luciferase synthesis (E. coli ribosomes): low IC50s
21 | CN[C@@H]1[C@H](O)[C@H](NC)C2O[C@]3(O)C(OC2[C@H]1O)O[C@H](C)C[C@H]3NC(=O)Cc1csc(Nc2ccc(F)cc2)n1 (stereo partly drawn) [Compound 1538, 3′-Dihydro-3′-deoxy-4(R)-(2-((4-fluorophenyl)amino)thiazol-4-yl)acetylamino spectinomycin tribromide] | 8-62.5 fold | 
22 | CN[C@@H]1[C@H](O)[C@H](NC)C2O[C@]3(O)C(OC2[C@H]1O)O[C@H](C)C[C@H]3NC(=O)Cc1csc(-c2ccccc2)n1 (stereo partly drawn) [Compound 1517, 3′-Dihydro-3′-deoxy-4(R)-(2-phenylthiazol-4-yl)acetylamino spectinomycin trihydrobromide] | 8-62.5 fold | 
23 | CN[C@@H]1[C@H](O)[C@H](NC)C2O[C@]3(O)C(OC2[C@@H]1O)O[C@H](C)C[C@H]3NC(=O)Cc1nc2ccccc2s1 (stereo partly drawn) [Compound 1491, 3′-Dihydro-3′-deoxy-4(R)-(benzothiazol-2-yl)acetylamino spectinomycin trihydrobromide] | 8-62.5 fold | 
24 | CN[C@@H]1[C@H](O)[C@H](NC)C2O[C@]3(O)C(OC2[C@H]1O)O[C@H](C)C[C@H]3NC(=O)Cc1ccc(-c2cccc(OC)c2)cn1 (stereo partly drawn) [Compound 1543, 3′-Dihydro-3′-deoxy-4(R)-(5-(3-methoxyphenyl)pyridin-2-yl)acetyl-amino spectinomycin tribromide] | 8-62.5 fold | fold improvement over spectinomycin (MIC) against E. facecalis (E. faecalis ATCC 33186): 4-16 fold
